Measured values taken from PubChem BioAssay AID493014 (National Center for Advancing Translational Sciences (NCATS), 2011).
The other results are listed elsewhere or left out. The main result of the screen is listed elsewhere. These columns were measured beside it and carry no call. Compounds called inactive in the main read-out are mostly missing here. The note in brackets gives the kind of curve behind each potency; many fits are weak.

Assay: qHTS Assay to Find Inhibitors of Chronic Active B-Cell Receptor Signaling
Conditions: ABC-DLBCL IkBa-CBG/CBR reporter, luminescence ratio (green luciferase fused to IkBa over red control in TMD8 lymphoma cells), 4 h
Outline: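 Cell line TMD8 (human ABC DLBCL), stably expressing tet-inducible CBG68-IkBa fusion and CBR; IMDM/0.5% FBS; cpd up to 46 uM; dox induction, 4 h, 37C/5% CO2; dual luminescence; green/red ratio; MG132 control.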

[1] = measured here: CBR red luminescence, cell number
[2] = measured here: IkBa-CBG green luminescence

SMILES	AC50 [1]	AC50 [2]
Cc1nc2c(C(=O)NCCC(C)C)c[nH]n2c(=O)c1Cc1ccccc1F	10 µM [falling, partial curve]	–
CCCNC(=O)COc1coc(CN2CCN(c3ccc(F)cc3)CC2)cc1=O	4.47 µM [falling, full curve, poor fit]	–
COc1ccc2ccccc2c1/C=N/NC(=S)NCCN1CCOCC1	–	22.4 µM [falling, single point]
COc1ccc(OCC(O)CNS(=O)(=O)c2cccs2)cc1 (stereo not given)	0.447 µM [falling, full curve, poor fit]	–
CCN1/C(=C(\O)c2ccccc2)C(=O)c2ccccc2S1(=O)=O	29.1 µM [falling, single point]	–
N#C/C(=C\c1ccco1)C(=O)NCc1ccccc1	0.891 µM [rising, full curve, poor fit]	–
O=C(CSc1cc(Cl)ccc1Cl)Nc1ccc(N2CCOCC2)cc1	29.1 µM [rising, single point]	18.4 µM [falling, partial curve, poor fit]
O=[N+]([O-])C(=C1SCCS1)C(=C(Cl)Cl)N1CCCCC1	–	35.5 µM [rising, partial curve, poor fit]
CC(=O)c1cccc(NC(=O)NCCS(C)=O)c1 (stereo not given)	14.1 µM [rising, partial curve, poor fit]	–
O=C(Nc1ccc(Cc2ccncc2)cc1)C1CCC(N2C(=O)C3CC=CCC3C2=O)CC1 (stereo not given)	18.4 µM [falling, single point]	–
CC(=O)Nc1cnc(NC(=O)c2cccc(F)c2)cc1C	9.2 µM [falling, partial curve, poor fit]	–
COc1ccccc1NC(=O)C1=C(C)Nc2nnnn2C1c1ccccn1 (stereo not given)	14.6 µM [falling, single point]	–
O=C(CCl)N(c1ccc(Cl)cc1)c1c[nH]c2ccccc12	7.31 µM [falling, full curve, poor fit]	–
O=C(NC(=S)Nc1ccc(N2CCOCC2)cc1)c1ccco1	2.31 µM [rising, full curve]	–
NS(=O)(=O)c1ccc(NC(=O)/C=C/c2ccco2)cc1	12.6 µM [falling, single point]	–
Cc1ccsc1/C=C/C1=NCCCN1C	29.1 µM [rising, single point]	25.9 µM [falling, partial curve, poor fit]
CCc1nnc(NC(=O)C2CCC(CNc3c(N4CCCCC4)c(=O)c3=O)CC2)s1 (stereo not given)	0.562 µM [rising, full curve, poor fit]	–
Cc1ccsc1/C=N/NC(=O)C(=O)NCC(C)C	7.94 µM [falling, partial curve]	–
O=C(CSc1nnc(-c2ccncc2)n1Cc1ccccc1)NC1CCCCC1	35.5 µM [falling, single point]	–
COc1cccc(C(=O)Nc2ccc(-n3nncc3-c3ccccc3)cc2)c1OC	35.5 µM [falling, single point]	–
CCCNC(=O)c1cc(-c2ccccc2)c(N2CCCCC2)s1	7.08 µM [rising, partial curve, poor fit]	–

SMILES	AC50 [1]	AC50 [2]
Cc1ccc(Sc2ncnc3onc(C)c23)cc1	7.08 µM [falling, partial curve]	–
COc1cc(NC(=O)N2CCOCC2)cc(OC)c1	29.1 µM [rising, single point]	–
CCOC(=O)/C=C/C(=O)OCC(=O)Nc1ccc(OC)c(Cl)c1	29.1 µM [rising, single point]	32.6 µM [falling, partial curve, poor fit]
Fc1ccc(CSc2nnc(-c3ccco3)o2)cc1	2.51 µM [rising, partial curve, poor fit]	–
C=CC[C@H](CC(=O)N(CCO)Cc1ccccc1)C(=O)N[C@H](COC(=O)[C@@H](CC=C)Cc1ccc(F)cc1)Cc1ccccc1	29.1 µM [falling, single point]	–
CC1(C)CC(=O)C(C=Nc2ccc(N)cc2)=C(O)C1	0.398 µM [falling, full curve, poor fit]	–
CCCCCCc1nc2ccccc2c(=O)n1N	10 µM [rising, partial curve, poor fit]	–
Cc1ccc(C(=O)Nc2nn(C)c3cccc(F)c23)cc1	1 µM [falling, full curve, poor fit]	–
CC(=O)c1cccc(NC(=O)COC(=O)c2cccc(N3C(=O)c4ccccc4C3=O)c2)c1	23.1 µM [falling, single point]	–
C=CCN1C(=O)/C(=C\c2ccc(OC(=O)c3ccco3)c(OC)c2)SC1=S	6.31 µM [rising, partial curve]	–
O=C(NN=C1CCCCCCCCCCC1)c1cccnc1	12.6 µM [falling, partial curve]	–
O=C(CSc1ncnc2scc(-c3ccccc3)c12)NC1CCS(=O)(=O)C1 (stereo not given)	10 µM [rising, partial curve]	11.2 µM [falling, partial curve, poor fit]
O=C(CCN1CCN(c2ccccc2)CC1)c1ccc(Cl)cc1	35.5 µM [falling, single point]	–
COc1ccccc1NC(=O)Cc1noc(CSc2n[nH]c(N)n2)n1	7.94 µM [rising, partial curve, poor fit]	–
CCOC(=O)c1[nH]c(C)c(C)c1C	35.5 µM [rising, single point]	–
COc1cc(C(=O)N/N=C/c2cn(Cc3ccccc3)c3ccccc23)ccc1O	2.51 µM [falling, partial curve, poor fit]	–
Cn1nnnc1Sc1ncnc2scc(-c3cccs3)c12	9.2 µM [falling, partial curve, poor fit]	–
C=CCn1c(Cc2cccs2)nnc1SCC(=O)Nc1ccc(C(=O)OCC)cc1	22.4 µM [falling, single point]	–
NC(=O)c1oc2ccccc2c1NC(=O)c1ccccc1	1.46 µM [falling, full curve]	–
C/C(=N\NC(=O)C(O)c1ccccc1)c1ccc(Cl)cc1 (stereo not given)	10 µM [falling, partial curve, poor fit]	–
